The list shows a part of the results. Residues, ends and D or L forms follow the SMILES beside them. *: point of attachment. Cbz = O=C(OCc1ccccc1)*
Key:
Assay in all cases: log2 fold change, soluble protein after heating vs DMSO (PISA); higher = thermal stabilisation; K562 cells, 10 uM, 30 min; active = over 0.2 and 3.5 SD of the protein, either way, in both replicates (recomputed)
IRAK-1-4 Inhibitor I = compound: C1COCCN1CCN2C3=CC=CC=C3N=C2NC(=O)C4=CC(=CC=C4)[N+](=O)[O-] [IRAK-1-4 Inhibitor I]
In short: (§1)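 K562 cells at 2×10^6 cells/mL were exposed to 10 μM compound for 30 min, then aliquots were heated for 3 min across 48°C-58°C, pooled, and extracted in PBS containing 0.5% NP-40 at 4°C. The supernatant after 21,000xg for 90 min was taken as soluble protein and measured by TMTpro 16plex LC-MS/MS with channel sums equalised. Thermal stability is reported relative to control samples, with values from duplicates. Fold changes are given on a log2 scale.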

By UniProt entry, the sequences of proteins in these tests, tags left out. Where a name states a change or a piece, a line headed by the entry shows the natural chain unless it says otherwise.
UniProt P46926: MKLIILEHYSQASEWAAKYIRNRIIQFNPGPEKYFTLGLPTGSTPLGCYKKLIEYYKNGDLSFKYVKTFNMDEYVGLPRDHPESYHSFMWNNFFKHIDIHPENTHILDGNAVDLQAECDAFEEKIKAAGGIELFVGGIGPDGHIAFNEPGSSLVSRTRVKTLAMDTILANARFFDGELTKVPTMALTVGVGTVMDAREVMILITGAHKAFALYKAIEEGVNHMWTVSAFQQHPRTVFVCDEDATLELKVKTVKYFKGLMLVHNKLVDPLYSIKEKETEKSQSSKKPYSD
UniProt Q9BRX5: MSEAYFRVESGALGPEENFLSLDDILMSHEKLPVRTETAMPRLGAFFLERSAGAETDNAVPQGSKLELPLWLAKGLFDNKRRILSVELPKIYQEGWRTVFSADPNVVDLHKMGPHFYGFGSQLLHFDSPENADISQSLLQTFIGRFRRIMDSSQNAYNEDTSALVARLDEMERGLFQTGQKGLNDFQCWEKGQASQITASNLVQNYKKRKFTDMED
UniProt P36959: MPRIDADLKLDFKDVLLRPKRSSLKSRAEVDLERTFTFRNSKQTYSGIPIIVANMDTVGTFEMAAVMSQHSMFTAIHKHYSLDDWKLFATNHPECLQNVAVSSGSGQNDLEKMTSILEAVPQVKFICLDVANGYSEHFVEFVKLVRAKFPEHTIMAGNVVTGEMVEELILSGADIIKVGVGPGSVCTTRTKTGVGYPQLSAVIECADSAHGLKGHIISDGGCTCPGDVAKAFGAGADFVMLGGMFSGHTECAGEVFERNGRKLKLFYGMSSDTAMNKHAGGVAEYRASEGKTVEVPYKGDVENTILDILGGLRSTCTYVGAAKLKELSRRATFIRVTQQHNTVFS
UniProt O15228: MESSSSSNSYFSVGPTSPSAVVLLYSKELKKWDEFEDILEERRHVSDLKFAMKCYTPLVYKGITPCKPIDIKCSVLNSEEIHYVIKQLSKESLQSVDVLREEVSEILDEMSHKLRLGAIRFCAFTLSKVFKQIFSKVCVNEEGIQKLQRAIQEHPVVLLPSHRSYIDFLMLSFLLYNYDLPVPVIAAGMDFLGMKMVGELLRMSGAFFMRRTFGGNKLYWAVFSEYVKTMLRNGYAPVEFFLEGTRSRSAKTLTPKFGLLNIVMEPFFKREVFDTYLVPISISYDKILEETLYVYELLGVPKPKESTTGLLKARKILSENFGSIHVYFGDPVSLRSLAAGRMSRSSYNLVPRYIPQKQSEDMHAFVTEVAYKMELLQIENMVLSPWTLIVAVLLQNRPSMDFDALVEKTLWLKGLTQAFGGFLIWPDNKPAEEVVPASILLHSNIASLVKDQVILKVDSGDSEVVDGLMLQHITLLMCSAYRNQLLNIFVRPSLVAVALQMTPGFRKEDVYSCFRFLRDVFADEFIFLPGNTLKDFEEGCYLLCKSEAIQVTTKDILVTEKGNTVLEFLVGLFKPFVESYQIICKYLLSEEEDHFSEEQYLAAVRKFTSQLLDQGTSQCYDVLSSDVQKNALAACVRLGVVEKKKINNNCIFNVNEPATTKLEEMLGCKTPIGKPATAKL
UniProt B7ZAQ6: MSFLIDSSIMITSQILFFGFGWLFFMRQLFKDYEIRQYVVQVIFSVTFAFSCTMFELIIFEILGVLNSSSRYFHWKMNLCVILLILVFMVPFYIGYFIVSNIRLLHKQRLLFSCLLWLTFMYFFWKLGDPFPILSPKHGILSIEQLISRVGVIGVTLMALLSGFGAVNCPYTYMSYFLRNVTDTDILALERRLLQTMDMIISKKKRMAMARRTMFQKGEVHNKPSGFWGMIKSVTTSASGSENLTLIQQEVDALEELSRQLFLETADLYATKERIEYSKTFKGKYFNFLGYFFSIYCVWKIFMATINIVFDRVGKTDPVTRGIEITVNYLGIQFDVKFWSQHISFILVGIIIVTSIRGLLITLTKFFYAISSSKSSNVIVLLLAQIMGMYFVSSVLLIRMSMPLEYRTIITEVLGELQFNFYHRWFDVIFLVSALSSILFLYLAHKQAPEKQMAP
UniProt P04899, whole entry, looked up: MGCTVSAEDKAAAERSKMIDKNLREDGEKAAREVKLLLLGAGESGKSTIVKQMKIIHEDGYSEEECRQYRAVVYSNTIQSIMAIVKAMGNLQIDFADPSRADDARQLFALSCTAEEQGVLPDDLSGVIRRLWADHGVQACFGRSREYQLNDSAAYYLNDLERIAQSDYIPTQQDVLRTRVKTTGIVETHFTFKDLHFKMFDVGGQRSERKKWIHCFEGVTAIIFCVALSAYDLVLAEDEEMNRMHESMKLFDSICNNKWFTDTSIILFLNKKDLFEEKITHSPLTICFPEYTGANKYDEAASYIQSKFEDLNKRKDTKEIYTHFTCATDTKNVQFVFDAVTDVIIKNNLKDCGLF
UniProt Q9NWU2, whole entry, looked up: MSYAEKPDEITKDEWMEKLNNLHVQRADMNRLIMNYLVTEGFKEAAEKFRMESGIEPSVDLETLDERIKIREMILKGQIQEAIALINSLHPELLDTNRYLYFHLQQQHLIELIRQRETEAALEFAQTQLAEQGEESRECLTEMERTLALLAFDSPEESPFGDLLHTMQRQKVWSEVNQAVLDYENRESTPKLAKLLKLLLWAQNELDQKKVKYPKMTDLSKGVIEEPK
UniProt P50148, whole entry, looked up: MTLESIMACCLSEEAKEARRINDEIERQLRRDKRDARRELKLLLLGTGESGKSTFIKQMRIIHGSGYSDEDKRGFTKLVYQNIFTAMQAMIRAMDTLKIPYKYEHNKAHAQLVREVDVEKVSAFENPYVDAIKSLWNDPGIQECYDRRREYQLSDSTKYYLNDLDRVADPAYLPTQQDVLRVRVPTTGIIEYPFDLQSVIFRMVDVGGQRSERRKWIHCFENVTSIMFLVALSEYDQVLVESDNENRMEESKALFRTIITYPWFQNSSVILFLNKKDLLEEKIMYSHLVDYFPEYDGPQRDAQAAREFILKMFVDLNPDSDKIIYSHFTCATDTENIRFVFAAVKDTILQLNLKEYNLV
UniProt Q86UL3: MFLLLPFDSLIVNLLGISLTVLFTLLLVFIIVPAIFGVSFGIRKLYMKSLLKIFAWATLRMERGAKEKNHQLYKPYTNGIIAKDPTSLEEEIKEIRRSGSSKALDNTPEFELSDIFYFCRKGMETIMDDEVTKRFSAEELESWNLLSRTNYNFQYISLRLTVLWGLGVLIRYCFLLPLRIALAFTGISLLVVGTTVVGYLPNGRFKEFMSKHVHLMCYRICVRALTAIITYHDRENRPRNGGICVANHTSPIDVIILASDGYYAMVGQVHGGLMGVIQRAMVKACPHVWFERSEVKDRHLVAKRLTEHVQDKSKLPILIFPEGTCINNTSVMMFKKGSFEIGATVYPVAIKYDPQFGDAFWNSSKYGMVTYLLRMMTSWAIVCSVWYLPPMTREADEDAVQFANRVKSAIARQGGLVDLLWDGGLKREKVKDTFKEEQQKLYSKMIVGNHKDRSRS
UniProt Q9Y5P6: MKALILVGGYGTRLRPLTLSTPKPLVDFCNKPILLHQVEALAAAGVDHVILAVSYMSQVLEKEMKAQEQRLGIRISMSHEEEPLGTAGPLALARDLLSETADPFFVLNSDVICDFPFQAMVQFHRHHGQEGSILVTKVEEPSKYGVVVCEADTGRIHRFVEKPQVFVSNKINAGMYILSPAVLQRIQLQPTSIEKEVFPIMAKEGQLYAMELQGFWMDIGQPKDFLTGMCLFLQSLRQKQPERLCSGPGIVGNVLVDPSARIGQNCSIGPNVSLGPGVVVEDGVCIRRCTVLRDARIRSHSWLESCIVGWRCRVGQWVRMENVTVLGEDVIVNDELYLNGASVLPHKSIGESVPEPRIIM
UniProt P49915: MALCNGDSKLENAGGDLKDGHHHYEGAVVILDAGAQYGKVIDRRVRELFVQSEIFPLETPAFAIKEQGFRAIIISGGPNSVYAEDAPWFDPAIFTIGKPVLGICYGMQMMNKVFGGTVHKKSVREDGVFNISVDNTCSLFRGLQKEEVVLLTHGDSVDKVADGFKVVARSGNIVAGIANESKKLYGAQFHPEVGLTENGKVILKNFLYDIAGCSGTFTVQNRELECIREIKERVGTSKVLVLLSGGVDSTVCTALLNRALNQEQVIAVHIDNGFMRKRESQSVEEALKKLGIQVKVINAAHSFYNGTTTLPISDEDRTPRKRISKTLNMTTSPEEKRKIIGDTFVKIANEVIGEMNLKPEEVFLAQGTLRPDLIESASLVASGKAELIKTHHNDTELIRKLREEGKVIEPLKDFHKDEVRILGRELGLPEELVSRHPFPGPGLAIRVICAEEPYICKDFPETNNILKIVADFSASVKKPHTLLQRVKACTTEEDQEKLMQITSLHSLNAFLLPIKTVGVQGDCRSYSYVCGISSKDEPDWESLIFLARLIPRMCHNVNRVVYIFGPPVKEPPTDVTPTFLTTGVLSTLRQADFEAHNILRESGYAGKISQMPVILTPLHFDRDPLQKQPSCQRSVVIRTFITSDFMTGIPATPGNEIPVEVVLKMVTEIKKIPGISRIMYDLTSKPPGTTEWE
UniProt O75496: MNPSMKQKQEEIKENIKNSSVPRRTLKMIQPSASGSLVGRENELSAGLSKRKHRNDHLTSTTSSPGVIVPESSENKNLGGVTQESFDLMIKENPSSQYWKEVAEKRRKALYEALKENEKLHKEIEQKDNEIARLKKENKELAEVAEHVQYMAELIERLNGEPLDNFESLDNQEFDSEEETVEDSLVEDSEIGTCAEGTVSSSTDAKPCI
UniProt Q86WP2: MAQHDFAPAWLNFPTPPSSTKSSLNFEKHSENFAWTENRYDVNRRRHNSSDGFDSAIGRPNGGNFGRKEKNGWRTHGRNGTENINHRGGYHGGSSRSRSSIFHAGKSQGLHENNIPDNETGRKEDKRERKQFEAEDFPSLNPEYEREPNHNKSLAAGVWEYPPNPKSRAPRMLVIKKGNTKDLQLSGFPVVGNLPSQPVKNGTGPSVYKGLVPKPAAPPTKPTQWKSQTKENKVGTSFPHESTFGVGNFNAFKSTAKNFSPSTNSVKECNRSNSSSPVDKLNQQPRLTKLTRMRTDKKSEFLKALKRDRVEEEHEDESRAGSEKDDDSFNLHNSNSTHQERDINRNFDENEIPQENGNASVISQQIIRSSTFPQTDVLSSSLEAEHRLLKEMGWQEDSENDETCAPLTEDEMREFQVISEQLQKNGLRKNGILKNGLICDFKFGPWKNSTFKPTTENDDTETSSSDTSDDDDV
UniProt Q9BYB4: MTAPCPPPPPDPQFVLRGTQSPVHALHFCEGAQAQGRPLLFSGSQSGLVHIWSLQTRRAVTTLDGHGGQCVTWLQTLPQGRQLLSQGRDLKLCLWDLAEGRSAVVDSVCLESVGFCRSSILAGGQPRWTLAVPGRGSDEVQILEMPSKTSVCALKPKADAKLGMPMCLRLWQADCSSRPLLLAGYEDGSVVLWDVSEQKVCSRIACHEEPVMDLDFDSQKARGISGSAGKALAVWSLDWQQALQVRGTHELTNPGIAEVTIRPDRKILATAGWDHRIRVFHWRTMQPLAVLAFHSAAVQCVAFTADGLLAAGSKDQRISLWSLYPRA
UniProt Q9UJJ9: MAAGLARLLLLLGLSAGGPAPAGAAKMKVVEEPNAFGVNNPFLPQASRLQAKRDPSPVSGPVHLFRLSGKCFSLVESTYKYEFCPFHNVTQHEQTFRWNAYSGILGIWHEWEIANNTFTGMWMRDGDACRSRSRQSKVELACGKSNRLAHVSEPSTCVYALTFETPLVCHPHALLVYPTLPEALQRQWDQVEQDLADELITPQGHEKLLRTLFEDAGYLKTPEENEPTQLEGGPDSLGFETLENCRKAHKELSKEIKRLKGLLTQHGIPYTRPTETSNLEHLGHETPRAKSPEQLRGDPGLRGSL

ibrutinib = compound: C=CC(=O)N1CCC[C@@H](n2nc(-c3ccc(Oc4ccccc4)cc3)c3c(N)ncnc32)C1 [ibrutinib]
In short: as §1

[1] = compound: CC(=O)c1cnc2ccc(-c3cc(Cl)c(O)c(Cl)c3)nc2c1N[C@H]1CC[C@H](CN(C)C)CC1
In short: as §1

ralimetinib = compound: CC(C)(C)Cn1c(N)nc2ccc(-c3[nH]c(C(C)(C)C)nc3-c3ccc(F)cc3)nc21 [ralimetinib]
In short: as §1

[2] = compound: CC(C)(O)CC(=O)NCCn1ccc2ncnc(Nc3ccc(Oc4cccc(C(F)(F)F)c4)c(Cl)c3)c21
In short: as §1

[3] = compound: CC(C)C1=C2N=C(C=C(N2N=C1)NCC3=CC=CC=C3)NCCCCCCN
In short: as §1

[4] = compound: CC(C)C[C@@H](C=O)NC(=O)[C@H](CC(C)C)NC(=O)[C@H](CC(C)C)NC(=O)OCc1ccccc1
In short: as §1

pinometostat = compound: CC(C)N(C[C@H]1O[C@@H](n2cnc3c(N)ncnc32)[C@H](O)[C@@H]1O)[C@H]1C[C@@H](CCc2nc3cc(C(C)(C)C)ccc3[nH]2)C1 [pinometostat]
In short: as §1

[5] = compound: CC1=C(C(CC(=O)N1)C2=CC=C(C=C2)C(F)(F)F)C(=O)NC3=C(C=C4C(=C3)C=NN4)F
In short: as §1

[6] = compound: CC1=C(C2=C(C=C1)C(=O)C3=CC=CC=C3N2CCCN)C
In short: as §1

[7] = compound: CC1=C(C=C(C=C1)NC(=O)C2=CC(=CC=C2)C(C)(C)C#N)NC3=CC4=C(C=C3)N=CN(C4=O)C
In short: as §1

[8] = compound: CC1=C(C=C(C=C1)NC(=O)C2=CC(=CC=C2)N(C)C)NC(=O)C3=CC=C(C=C3)O
In short: as §1

[9] = compound: CC1=CC=C(C=C1)SC2=C3C=C(SC3=CN=C2)C(=O)N
In short: as §1

[10] = compound: CC1=NC(=CC=C1)C2=C(N=C(N2)C(C)(C)C)C3=CC4=NC=CN=C4C=C3
In short: as §1

Nexturastat A = compound: CCCCN(Cc1ccc(C(=O)NO)cc1)C(=O)Nc1ccccc1 [Nexturastat A]
In short: as §1

vemurafenib = compound: CCCS(=O)(=O)Nc1ccc(F)c(C(=O)c2c[nH]c3ncc(-c4ccc(Cl)cc4)cc23)c1F [vemurafenib]
In short: as §1

[11] = compound: CCCS(=O)(=O)Nc1ccc(F)c(C(=O)c2c[nH]c3ncc(Cl)cc23)c1F
In short: as §1

[12] = compound: CCCc1cc(C)[nH]c(=O)c1CNC(=O)c1cc(-c2ccnc(N3CCN(C)CC3)c2)cc2c1cnn2C(C)C
In short: as §1

givinostat = compound: CCN(CC)Cc1ccc2cc(COC(=O)Nc3ccc(C(=O)NO)cc3)ccc2c1 [givinostat]
In short: as §1

barasertib = compound: CCN(CCCOc1ccc2c(Nc3cc(CC(=O)Nc4cccc(F)c4)[nH]n3)ncnc2c1)CCOP(=O)(O)O [barasertib]
In short: as §1

Measured: log2 fold change

GNPDA1 (UniProt P46926)
inactive: IRAK-1-4 Inhibitor I 0.011 | ibrutinib 0.019 | [1] 0.021 | ralimetinib -0.041 | [2] -0.009 | [3] 0.065 | [4] -0.004 | pinometostat -0.051 | [5] 0.011 | [6] -0.006 | [7] -0.01 | [8] 0.017 | [9] 0.001 | [10] 0.005 | Nexturastat A -0.155 | vemurafenib 0 | [11] -0.008 | [12] -0.014 | givinostat -0.022 | barasertib 0.005

GINS3 (UniProt Q9BRX5)
inactive: IRAK-1-4 Inhibitor I 0.009 | ibrutinib -0.025 | [1] -0.01 | ralimetinib -0.015 | [2] -0.032 | [3] -0.057 | [4] -0.012 | pinometostat -0.004 | [5] -0.035 | [6] 0.031 | [7] 0.009 | [8] -0.044 | [9] 0.018 | [10] 0.012 | Nexturastat A -0.097 | vemurafenib -0.007 | [11] 0.004 | [12] -0.006 | givinostat 0.012 | barasertib 0.058

GMPR (UniProt P36959)
inactive: IRAK-1-4 Inhibitor I 0.007 | ibrutinib 0.038 | [1] 0.006 | ralimetinib -0.069 | [2] -0.019 | [3] -0.001 | [4] -0.041 | pinometostat -0.02 | [5] -0.01 | [6] -0.03 | [7] -0.042 | [8] -0.019 | [9] 0.004 | [10] 0.005 | Nexturastat A -0.075 | vemurafenib -0.037 | [11] 0.017 | [12] -0.029 | givinostat -0.056 | barasertib -0.006

GNPAT (UniProt O15228)
inactive: IRAK-1-4 Inhibitor I 0.026 | ibrutinib -0.007 | [1] -0.017 | ralimetinib 0.02 | [2] -0.053 | [3] -0.018 | [4] -0.014 | pinometostat -0.018 | [6] 0.024 | [7] -0.03 | [8] -0.046 | [9] 0.007 | [10] 0 | Nexturastat A -0.039 | vemurafenib 0.023 | [11] 0.045 | [12] 0.03 | givinostat 0.022 | barasertib 0.044

Random excerpt: two entries already listed
GMPR (UniProt P36959)
inactive: IRAK-1-4 Inhibitor I 0.007 | ibrutinib 0.038 | [1] 0.006 | ralimetinib -0.069 | [2] -0.019 | [3] -0.001 | [4] -0.041 | pinometostat -0.02 | [5] -0.01 | [6] -0.03 | [7] -0.042 | [8] -0.019 | [9] 0.004 | [10] 0.005 | Nexturastat A -0.075 | vemurafenib -0.037 | [11] 0.017 | [12] -0.029 | givinostat -0.056 | barasertib -0.006

GINS3 (UniProt Q9BRX5)
inactive: IRAK-1-4 Inhibitor I 0.009 | ibrutinib -0.025 | [1] -0.01 | ralimetinib -0.015 | [2] -0.032 | [3] -0.057 | [4] -0.012 | pinometostat -0.004 | [5] -0.035 | [6] 0.031 | [7] 0.009 | [8] -0.044 | [9] 0.018 | [10] 0.012 | Nexturastat A -0.097 | vemurafenib -0.007 | [11] 0.004 | [12] -0.006 | givinostat 0.012 | barasertib 0.058

(list continues)

GPR89A (UniProt B7ZAQ6)
inactive: IRAK-1-4 Inhibitor I -0.023 | ibrutinib 0.048 | [1] 0.009 | ralimetinib -0.014 | [2] -0.045 | [3] 0.011 | [4] 0.005 | pinometostat -0.041 | [5] -0.006 | [6] 0.014 | [7] -0.046 | [8] 0.034 | [9] 0.079 | [10] 0.09 | Nexturastat A -0.031 | vemurafenib 0.1 | [11] 0.028 | [12] 0.01 | givinostat 0 | barasertib 0.006

GNAI2 isoform 4 (UniProt P04899)
inactive: IRAK-1-4 Inhibitor I -0.01 | ibrutinib 0.042 | [1] 0.015 | ralimetinib 0.015 | [2] 0.061 | [3] 0.016 | [4] 0.016 | pinometostat -0.002 | [5] -0.043 | [6] 0.022 | [7] 0.122 | [8] 0.002 | [9] -0.032 | [10] -0.046 | Nexturastat A -0.022 | vemurafenib 0.043 | [11] 0.021 | [12] 0.029 | givinostat -0.161 | barasertib -0.047

GID8 (UniProt Q9NWU2)
inactive: IRAK-1-4 Inhibitor I -0.001 | ibrutinib -0.021 | [1] 0.034 | ralimetinib 0.04 | [2] -0.024 | [3] 0.046 | [4] -0.022 | pinometostat -0.037 | [5] 0.029 | [6] 0.033 | [7] 0.035 | [8] -0.037 | [9] -0.044 | [10] 0.013 | Nexturastat A 0.047 | vemurafenib 0.063 | [11] -0.002 | [12] -0.03 | givinostat -0.027 | barasertib 0.054

GNAQ (UniProt P50148)
inactive: IRAK-1-4 Inhibitor I 0.018 | ibrutinib 0.063 | [1] -0.093 | ralimetinib -0.068 | [2] 0.036 | [3] 0.095 | [4] 0.008 | pinometostat -0.004 | [5] -0.046 | [6] 0.039 | [7] 0.004 | [8] -0.013 | [9] -0.011 | [10] -0.076 | Nexturastat A -0.04 | vemurafenib -0.027 | [11] -0.1 | [12] -0.075 | givinostat -0.016 | barasertib -0.047

GPAT4 (UniProt Q86UL3)
inactive: IRAK-1-4 Inhibitor I -0.144 | ibrutinib -0.081 | [1] 0.044 | ralimetinib -0.058 | [2] -0.09 | [3] 0.145 | [4] 0.007 | pinometostat -0.029 | [6] 0.047 | [7] 0.05 | [8] -0.004 | [9] 0.014 | [10] -0.004 | Nexturastat A -0.004 | vemurafenib 0.036 | [11] 0.027 | [12] 0.019 | givinostat -0.024 | barasertib 0.027

GMPPB isoform 2 (UniProt Q9Y5P6)
inactive: IRAK-1-4 Inhibitor I -0.038 | ibrutinib 0.003 | [1] -0.046 | ralimetinib -0.014 | [2] -0.107 | [3] 0.036 | [4] 0.011 | pinometostat -0.105 | [5] -0.041 | [6] 0.105 | [7] -0.021 | [8] -0.005 | [9] 0.033 | [10] 0.057 | Nexturastat A -0.108 | vemurafenib 0.034 | [11] 0.052 | [12] -0.056 | givinostat 0.014 | barasertib 0.018

GMPS (UniProt P49915)
inactive: IRAK-1-4 Inhibitor I 0.036 | ibrutinib -0.018 | [1] -0.025 | ralimetinib 0.046 | [2] -0.05 | [3] -0.067 | [4] -0.064 | pinometostat -0.013 | [5] -0.011 | [6] 0.071 | [7] 0.008 | [8] -0.024 | [9] 0.033 | [10] 0.046 | Nexturastat A -0.051 | vemurafenib 0.013 | [11] 0.057 | [12] -0.01 | givinostat -0.019 | barasertib 0.009

GMNN (UniProt O75496)
inactive: IRAK-1-4 Inhibitor I 0.01 | ibrutinib 0.062 | [1] 0.006 | ralimetinib -0.051 | [2] -0.01 | [3] 0.114 | [4] 0.057 | pinometostat -0.063 | [5] 0.01 | [6] -0.009 | [7] -0.019 | [8] 0.018 | [9] 0.006 | [10] 0.005 | Nexturastat A -0.036 | vemurafenib -0.028 | [11] -0.005 | [12] -0.006 | givinostat -0.044 | barasertib -0.024

GPBP1 isoform 2 (UniProt Q86WP2)
inactive: IRAK-1-4 Inhibitor I -0.092 | ibrutinib 0.053 | [1] 0.071 | ralimetinib 0.023 | [2] 0.09 | [3] -0.06 | [4] 0.102 | pinometostat 0.01 | [5] 0.012 | [6] -0.007 | [7] 0.017 | [8] -0.04 | [9] -0.081 | [10] 0.029 | Nexturastat A 0.095 | vemurafenib -0.182 | [11] -0.046 | [12] -0.053 | givinostat -0.059 | barasertib -0.03

GNB1L (UniProt Q9BYB4)
inactive: IRAK-1-4 Inhibitor I 0.01 | ibrutinib 0.03 | [1] -0.007 | ralimetinib -0.06 | [2] -0.027 | [3] 0.02 | [4] 0.005 | pinometostat -0.036 | [5] 0.028 | [6] 0.053 | [7] 0.004 | [8] -0.026 | [9] 0.01 | [10] 0.012 | Nexturastat A -0.015 | vemurafenib -0.008 | [11] -0.011 | [12] -0.107 | givinostat -0.184 | barasertib 0.001

GORASP2 isoform 3 (UniProt Q9H8Y8)
inactive: IRAK-1-4 Inhibitor I -0.101 | ibrutinib -0.006 | [1] 0.067 | ralimetinib 0.014 | [2] -0.165 | [3] 0.028 | [4] 0.054 | pinometostat 0.08 | [5] -0.012 | [6] 0.024 | [7] 0 | [8] -0.095 | [9] 0.074 | [10] -0.044 | Nexturastat A -0.019 | vemurafenib 0.1 | [11] 0.164 | [12] 0.027 | givinostat 0.054 | barasertib 0.042

GNPTG (UniProt Q9UJJ9)
inactive: IRAK-1-4 Inhibitor I -0.012 | ibrutinib 0.026 | [1] -0.034 | ralimetinib -0.048 | [2] 0.07 | [3] -0.047 | [4] 0.006 | pinometostat 0.037 | [5] 0.005 | [6] -0.015 | [8] 0.017 | [10] -0.127 | Nexturastat A -0.173 | [12] -0.022 | givinostat 0.006 | barasertib 0.008

From the supplement of paper PMC10849652
